Experimental data as given in article PMC11148087.
These are yes or no findings as the source states them, for the method shown. In cells and extracts the contact can be indirect. Some results given as binding are weak or reduced against the parent protein; the word gives no strength.

Chains of the proteins cited; added tags and fusions are not shown.
UniProt Q15561: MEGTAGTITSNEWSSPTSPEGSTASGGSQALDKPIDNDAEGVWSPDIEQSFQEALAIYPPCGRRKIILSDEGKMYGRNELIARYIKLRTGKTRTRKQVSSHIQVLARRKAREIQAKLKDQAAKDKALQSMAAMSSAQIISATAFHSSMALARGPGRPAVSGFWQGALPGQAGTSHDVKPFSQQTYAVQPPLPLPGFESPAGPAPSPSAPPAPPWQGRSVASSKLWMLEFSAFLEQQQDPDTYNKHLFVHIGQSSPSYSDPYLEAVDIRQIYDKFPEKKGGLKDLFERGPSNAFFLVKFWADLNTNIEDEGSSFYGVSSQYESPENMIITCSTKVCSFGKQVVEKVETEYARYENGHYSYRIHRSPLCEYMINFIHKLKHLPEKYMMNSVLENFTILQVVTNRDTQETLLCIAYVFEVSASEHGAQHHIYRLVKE

Molecular target: TEA domain transcription factor 4 (human (endogenous in LX-2)) (UniProt Q15561)
Assay: co-IP; 1 mg nuclear extract of LX-2 cells precipitated with 5 ug anti-TEAD4 (ab58310, Abcam) overnight at 4 °C, protein A/G Dynabeads, washes with 25 mM Tris-HCl pH 8.0, 150 mM NaCl, 1 mM EDTA, 0.2% NP-40; BNC2, TEAD4 and YAP1 detected by western blot or simple western immunoassay; also from cells treated with 50 uM OSMI-1 (OGTi) for 24 h, where the complex was diminished

B1: Basonuclin 2 (protein, UniProt Q6ZN30 1-1099)
chain: MAHLGPTPPPHSLNYKSEDRLSEQDWPAYFKVPCCGVDTSQIESEEAEVDVRERETQRDREPKRARDLTLRDSCTDNSMQFGTRTTTAEPGFMGTWQNADTNLLFRMSQQAIRCTLVNCTCECFQPGKINLRTCDQCKHGWVAHALDKLSTQHLYHPTQVEIVQSNVVFDISSLMLYGTQAVPVRLKILLDRLFSVLKQEEVLHILHGLGWTLRDYVRGYILQDAAGKVLDRWAIMSREEEIITLQQFLRFGETKSIVELMAIQEKEGQAVAVPSSKTDSDIRTFIESNNRTRSPSLLAHLENSNPSSIHHFENIPNSLAFLLPFQYINPVSAPLLGLPPNGLLLEQPGLRLREPSLSTQNEYNESSESEVSPTPYKNDQTPNRNALTSITNVEPKTEPACVSPIQNSAPVSDLTKTEHPKSSFRIHRMRRMGSASRKGRVFCNACGKTFYDKGTLKIHYNAVHLKIKHRCTIEGCNMVFSSLRSRNRHSANPNPRLHMPMLRNNRDKDLIRATSGAATPVIASTKSNLALTSPGRPPMGFTTPPLDPVLQNPLPSQLVFSGLKTVQPVPPFYRSLLTPGEMVSPPTSLPTSPIIPTSGTIEQHPPPPSEPVVPAVMMATHEPSADLAPKKKPRKSSMPVKIEKEIIDTADEFDDEDDDPNDGGAVVNDMSHDNHCHSQEEMSPGMSVKDFSKHNRTRCISRTEIRRADSMTSEDQEPERDYENESESSEPKLGEESMEGDEHIHSEVSEKVLMNSERPDENHSEPSHQDVIKVKEEFTDPTYDMFYMSQYGLYNGGGASMAALHESFTSSLNYGSPQKFSPEGDLCSSPDPKICYVCKKSFKSSYSVKLHYRNVHLKEMHVCTVAGCNAAFPSRRSRDRHSANINLHRKLLTKELDDMGLDSSQPSLSKDLRDEFLVKIYGAQHPMGLDVREDASSPAGTEDSHLNGYGRGMAEDYMVLDLSTTSSLQSSSSIHSSRESDAGSDEGILLDDIDGASDSGESAHKAEAPALPGSLGAEVSGSLMFSSLSGSNGGIMCNICHKMYSNKGTLRVHYKTVHLREMHKCKVPGCNMMFSSVRSRNRHSQNPNLHKNIPFTSVD
Q: How did the binding turn out when B1 was run?
A: binds
